# Source: the supplement of paper PMC6411743
# The chains behind the UniProt entries cited, without tags or fusion partners. Where a name states a change or a piece, a line headed by the entry shows the natural chain unless it says otherwise.
# UniProt Q9P2R3: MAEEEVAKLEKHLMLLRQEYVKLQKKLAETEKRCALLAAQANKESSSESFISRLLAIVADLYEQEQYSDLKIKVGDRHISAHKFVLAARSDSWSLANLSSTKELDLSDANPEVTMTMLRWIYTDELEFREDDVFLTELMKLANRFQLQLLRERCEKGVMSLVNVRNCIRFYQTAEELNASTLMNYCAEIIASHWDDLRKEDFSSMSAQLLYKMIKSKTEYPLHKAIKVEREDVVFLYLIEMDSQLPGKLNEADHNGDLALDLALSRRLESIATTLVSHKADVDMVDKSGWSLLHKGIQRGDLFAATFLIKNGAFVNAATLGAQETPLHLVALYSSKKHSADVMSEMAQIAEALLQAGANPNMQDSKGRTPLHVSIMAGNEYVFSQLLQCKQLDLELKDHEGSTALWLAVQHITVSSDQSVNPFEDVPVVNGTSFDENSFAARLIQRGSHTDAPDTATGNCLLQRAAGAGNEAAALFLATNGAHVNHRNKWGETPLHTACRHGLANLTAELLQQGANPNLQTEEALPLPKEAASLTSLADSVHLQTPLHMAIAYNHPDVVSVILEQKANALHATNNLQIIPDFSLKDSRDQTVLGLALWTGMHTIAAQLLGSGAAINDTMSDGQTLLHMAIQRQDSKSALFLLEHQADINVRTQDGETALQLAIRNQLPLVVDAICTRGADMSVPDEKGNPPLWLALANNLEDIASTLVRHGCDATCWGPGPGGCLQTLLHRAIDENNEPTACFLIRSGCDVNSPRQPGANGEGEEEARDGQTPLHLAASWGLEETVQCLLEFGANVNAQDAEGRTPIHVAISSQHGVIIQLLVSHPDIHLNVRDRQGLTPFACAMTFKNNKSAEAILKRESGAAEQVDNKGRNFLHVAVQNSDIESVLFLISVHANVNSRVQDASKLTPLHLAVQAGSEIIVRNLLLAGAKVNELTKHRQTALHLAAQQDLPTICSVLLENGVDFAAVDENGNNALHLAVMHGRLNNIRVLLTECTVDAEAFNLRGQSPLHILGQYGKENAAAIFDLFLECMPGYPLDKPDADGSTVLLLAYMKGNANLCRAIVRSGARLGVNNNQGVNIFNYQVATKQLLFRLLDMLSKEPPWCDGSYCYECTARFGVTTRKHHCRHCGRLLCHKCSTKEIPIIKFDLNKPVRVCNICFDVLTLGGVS
# UniProt Q9UBT6: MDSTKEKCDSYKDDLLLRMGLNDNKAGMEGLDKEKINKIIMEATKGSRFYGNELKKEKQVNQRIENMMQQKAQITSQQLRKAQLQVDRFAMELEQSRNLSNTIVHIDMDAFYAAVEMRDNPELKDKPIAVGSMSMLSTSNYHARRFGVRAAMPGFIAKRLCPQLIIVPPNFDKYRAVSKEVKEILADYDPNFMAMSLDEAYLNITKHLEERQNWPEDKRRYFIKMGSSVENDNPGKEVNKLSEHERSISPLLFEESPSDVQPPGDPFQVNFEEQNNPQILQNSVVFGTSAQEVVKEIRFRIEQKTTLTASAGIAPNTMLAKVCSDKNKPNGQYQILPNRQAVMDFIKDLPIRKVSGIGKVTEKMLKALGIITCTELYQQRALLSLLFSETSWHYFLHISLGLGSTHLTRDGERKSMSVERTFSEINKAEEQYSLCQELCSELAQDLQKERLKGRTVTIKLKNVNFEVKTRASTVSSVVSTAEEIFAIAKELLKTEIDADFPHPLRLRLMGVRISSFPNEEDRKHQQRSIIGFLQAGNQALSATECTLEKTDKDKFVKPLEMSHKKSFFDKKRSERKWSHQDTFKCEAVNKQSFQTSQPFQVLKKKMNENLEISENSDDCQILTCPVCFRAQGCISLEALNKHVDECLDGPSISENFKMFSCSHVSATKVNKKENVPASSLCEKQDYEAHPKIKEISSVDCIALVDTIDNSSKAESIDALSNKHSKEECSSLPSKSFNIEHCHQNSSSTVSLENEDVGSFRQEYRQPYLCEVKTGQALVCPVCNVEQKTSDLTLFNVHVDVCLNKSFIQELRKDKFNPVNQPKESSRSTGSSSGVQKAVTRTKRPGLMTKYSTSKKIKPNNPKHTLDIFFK
# UniProt Q9UIA9: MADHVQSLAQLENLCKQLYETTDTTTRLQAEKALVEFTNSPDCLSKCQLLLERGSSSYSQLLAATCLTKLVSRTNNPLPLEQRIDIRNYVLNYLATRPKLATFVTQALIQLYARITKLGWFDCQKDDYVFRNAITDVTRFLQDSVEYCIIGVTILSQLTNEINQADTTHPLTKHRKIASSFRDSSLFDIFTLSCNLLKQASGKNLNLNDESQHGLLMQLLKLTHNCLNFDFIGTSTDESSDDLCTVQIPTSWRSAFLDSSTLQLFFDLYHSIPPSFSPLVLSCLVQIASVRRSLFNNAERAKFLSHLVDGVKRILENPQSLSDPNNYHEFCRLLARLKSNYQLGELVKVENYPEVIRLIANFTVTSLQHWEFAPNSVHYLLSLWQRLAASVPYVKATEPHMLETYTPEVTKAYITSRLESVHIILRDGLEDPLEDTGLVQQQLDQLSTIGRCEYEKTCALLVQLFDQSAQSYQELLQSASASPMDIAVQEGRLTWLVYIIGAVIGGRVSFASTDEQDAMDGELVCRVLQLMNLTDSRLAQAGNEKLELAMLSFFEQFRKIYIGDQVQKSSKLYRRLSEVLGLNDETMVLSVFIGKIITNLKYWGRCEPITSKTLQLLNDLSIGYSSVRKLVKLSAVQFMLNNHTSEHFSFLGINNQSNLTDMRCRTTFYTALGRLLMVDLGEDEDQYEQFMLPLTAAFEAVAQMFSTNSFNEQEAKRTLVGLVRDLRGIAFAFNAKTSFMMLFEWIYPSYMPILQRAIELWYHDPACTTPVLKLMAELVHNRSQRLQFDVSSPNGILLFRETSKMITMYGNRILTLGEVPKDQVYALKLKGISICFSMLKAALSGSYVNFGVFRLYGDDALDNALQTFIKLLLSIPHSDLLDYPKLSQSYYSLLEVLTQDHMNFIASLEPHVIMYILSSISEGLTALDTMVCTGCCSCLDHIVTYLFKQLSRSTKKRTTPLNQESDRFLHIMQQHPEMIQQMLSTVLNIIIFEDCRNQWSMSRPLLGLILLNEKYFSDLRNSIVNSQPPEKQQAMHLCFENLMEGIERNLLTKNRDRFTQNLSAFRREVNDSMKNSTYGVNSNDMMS
# UniProt Q9Y252: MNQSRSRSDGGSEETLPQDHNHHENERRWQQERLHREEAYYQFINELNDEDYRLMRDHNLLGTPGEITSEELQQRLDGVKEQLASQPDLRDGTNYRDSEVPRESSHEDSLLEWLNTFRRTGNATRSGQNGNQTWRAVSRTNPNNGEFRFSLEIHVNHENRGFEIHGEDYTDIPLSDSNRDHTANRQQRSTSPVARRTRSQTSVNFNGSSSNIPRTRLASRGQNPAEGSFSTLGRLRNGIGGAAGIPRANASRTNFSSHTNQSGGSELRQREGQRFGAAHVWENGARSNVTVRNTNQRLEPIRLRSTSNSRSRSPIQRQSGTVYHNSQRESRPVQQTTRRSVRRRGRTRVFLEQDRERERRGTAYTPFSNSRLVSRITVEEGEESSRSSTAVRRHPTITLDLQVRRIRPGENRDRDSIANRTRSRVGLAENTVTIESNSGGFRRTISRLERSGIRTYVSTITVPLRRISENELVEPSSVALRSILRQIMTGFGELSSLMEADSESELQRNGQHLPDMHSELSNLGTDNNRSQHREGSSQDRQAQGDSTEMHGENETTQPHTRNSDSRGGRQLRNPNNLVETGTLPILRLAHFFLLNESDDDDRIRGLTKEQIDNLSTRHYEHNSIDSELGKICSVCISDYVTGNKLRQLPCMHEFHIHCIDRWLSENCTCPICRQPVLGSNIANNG
# UniProt Q9UHC7: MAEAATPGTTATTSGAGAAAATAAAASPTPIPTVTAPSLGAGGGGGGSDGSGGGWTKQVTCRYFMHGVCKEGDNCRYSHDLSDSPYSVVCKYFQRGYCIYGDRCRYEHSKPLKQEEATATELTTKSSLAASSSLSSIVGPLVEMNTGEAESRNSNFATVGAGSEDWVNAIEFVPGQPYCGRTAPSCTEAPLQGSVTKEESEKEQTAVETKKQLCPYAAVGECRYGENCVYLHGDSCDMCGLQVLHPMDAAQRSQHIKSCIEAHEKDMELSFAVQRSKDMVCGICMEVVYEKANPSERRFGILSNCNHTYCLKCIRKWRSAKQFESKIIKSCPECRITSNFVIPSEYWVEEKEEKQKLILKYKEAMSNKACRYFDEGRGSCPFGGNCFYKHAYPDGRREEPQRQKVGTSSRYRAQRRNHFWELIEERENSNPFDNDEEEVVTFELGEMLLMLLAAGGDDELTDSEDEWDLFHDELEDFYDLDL
# UniProt Q9UBI1, whole entry: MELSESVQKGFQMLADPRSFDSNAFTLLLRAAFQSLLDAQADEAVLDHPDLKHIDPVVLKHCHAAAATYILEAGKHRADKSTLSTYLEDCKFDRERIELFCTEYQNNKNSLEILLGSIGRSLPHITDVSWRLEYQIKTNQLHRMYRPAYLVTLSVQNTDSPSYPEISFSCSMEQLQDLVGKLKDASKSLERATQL
# UniProt Q9UEE9, whole entry: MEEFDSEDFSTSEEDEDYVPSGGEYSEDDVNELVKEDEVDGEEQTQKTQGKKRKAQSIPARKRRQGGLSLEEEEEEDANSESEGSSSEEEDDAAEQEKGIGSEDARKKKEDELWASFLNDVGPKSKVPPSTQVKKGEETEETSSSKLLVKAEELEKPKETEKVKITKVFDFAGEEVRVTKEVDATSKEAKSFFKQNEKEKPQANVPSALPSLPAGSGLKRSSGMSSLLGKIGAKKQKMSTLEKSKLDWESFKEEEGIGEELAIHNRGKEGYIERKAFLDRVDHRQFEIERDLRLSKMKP
# UniProt Q9ULH0: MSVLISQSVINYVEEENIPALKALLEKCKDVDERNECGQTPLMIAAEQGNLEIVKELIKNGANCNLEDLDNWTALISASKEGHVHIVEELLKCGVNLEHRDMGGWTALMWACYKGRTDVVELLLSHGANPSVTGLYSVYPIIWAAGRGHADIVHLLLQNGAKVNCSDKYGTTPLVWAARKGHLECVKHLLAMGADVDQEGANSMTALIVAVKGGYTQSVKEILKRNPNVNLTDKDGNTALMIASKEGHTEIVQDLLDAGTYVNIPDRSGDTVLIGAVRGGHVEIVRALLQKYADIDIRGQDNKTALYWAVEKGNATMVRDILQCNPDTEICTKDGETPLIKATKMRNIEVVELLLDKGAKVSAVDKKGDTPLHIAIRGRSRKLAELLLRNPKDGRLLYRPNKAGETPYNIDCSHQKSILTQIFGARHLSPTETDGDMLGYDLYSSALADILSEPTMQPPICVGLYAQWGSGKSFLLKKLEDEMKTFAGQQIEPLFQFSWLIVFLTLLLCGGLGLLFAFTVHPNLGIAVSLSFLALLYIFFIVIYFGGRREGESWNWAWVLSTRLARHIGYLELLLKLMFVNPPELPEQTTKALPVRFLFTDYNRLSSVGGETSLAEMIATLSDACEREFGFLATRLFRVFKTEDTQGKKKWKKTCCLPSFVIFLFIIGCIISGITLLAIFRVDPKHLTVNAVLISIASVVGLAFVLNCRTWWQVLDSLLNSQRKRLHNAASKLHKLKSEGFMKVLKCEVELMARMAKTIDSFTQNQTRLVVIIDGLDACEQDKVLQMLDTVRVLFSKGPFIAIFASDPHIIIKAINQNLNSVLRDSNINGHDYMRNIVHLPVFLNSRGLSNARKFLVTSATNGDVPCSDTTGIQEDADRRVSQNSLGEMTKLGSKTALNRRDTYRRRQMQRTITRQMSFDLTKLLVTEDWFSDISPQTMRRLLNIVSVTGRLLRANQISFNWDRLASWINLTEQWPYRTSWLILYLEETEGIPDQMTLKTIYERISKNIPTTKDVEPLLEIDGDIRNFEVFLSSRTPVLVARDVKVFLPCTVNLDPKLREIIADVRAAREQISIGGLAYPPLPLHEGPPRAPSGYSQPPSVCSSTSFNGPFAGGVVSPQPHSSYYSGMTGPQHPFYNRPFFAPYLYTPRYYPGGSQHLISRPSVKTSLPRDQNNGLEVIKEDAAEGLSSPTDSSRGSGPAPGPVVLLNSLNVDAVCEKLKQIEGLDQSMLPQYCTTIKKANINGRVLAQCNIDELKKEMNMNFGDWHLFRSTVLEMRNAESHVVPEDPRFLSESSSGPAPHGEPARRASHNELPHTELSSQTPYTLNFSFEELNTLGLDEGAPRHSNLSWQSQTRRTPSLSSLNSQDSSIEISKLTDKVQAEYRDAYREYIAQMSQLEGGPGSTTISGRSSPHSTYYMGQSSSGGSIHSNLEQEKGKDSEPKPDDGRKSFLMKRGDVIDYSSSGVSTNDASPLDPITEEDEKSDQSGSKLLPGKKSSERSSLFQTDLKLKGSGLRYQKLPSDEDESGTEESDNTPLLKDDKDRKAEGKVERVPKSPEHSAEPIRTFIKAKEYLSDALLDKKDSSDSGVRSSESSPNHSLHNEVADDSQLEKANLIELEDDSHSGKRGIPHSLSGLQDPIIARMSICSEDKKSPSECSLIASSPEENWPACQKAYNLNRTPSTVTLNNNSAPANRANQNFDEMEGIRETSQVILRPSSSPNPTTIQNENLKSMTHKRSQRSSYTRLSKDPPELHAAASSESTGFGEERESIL
# ± gives the standard deviation of the averaged measurements. This is a selection; strong and weak results do not stand in their true shares. Most entries show no effect beyond the scatter of the controls.
# Compound: Nc1ncnc2c1ncn2[C@@H]1O[C@H](COP(=O)(O)OP(=O)(O)OP(=O)(O)O)[C@@H](O)[C@H]1O [adenosine triphosphate]
# Assay: NP40-soluble protein abundance relative to vehicle (solubility fold change) (ratio); higher = more soluble protein in presence of ATP
# In short: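 Eight concentrations, 0.1 to 10 mM, were tested on Jurkat crude lysate for 10 min at room temperature and then 3 min at 37 °C, in three independent experiments. The lysate was solubilised with 0.8% NP40 and benzonase, ultracentrifuged, and the supernatant TMT-labelled for LC-MS/MS. Each value is the fold change against the detergent-processed vehicle in its own replicate, from vsn-normalised intensities.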
target,measurement,setting,value
MAN1B1 (UniProt Q9UKM7),NP40-soluble protein abundance,concentration: 0.1mM,1.01 ± 0.017
same,NP40-soluble protein abundance,concentration: 0.5mM,1.09 ± 0.033
UniProt Q9P2R3 and related entries,NP40-soluble protein abundance,concentration: 0.1mM,1.04 ± 0.051
same,NP40-soluble protein abundance,concentration: 0.5mM,1.03 ± 0.059
ZNFX1 (UniProt Q9P2E3),NP40-soluble protein abundance,concentration: 0.1mM,1.04 ± 0.051
same,NP40-soluble protein abundance,concentration: 0.5mM,1.03 ± 0.053
UniProt Q9UET6 and related entries,NP40-soluble protein abundance,concentration: 0.1mM,1.05 ± 0.03
same,NP40-soluble protein abundance,concentration: 0.5mM,1.13 ± 0.091
UniProt Q9UGU0 and related entries,NP40-soluble protein abundance,concentration: 0.1mM,1 ± 0.079
same,NP40-soluble protein abundance,concentration: 0.5mM,1.05 ± 0.064
UniProt Q9UNM6 and related entries,NP40-soluble protein abundance,concentration: 0.1mM,0.979 ± 0.038
same,NP40-soluble protein abundance,concentration: 0.5mM,0.957 ± 0.024
POLK (UniProt Q9UBT6),NP40-soluble protein abundance,concentration: 0.1mM,0.962 ± 0.057
same,NP40-soluble protein abundance,concentration: 0.5mM,0.975 ± 0.046
XPO7 (UniProt Q9UIA9),NP40-soluble protein abundance,concentration: 0.1mM,1.02 ± 0.068
same,NP40-soluble protein abundance,concentration: 0.5mM,0.9952 ± 0.0073
UniProt Q9Y252,NP40-soluble protein abundance,concentration: 0.1mM,0.96 ± 0.086
same,NP40-soluble protein abundance,concentration: 0.5mM,1.01 ± 0.1
UniProt Q9UBS8 and related entries,NP40-soluble protein abundance,concentration: 0.1mM,1.05 ± 0.073
same,NP40-soluble protein abundance,concentration: 0.5mM,0.994 ± 0.057
UniProt Q9P2R7 and related entries,NP40-soluble protein abundance,concentration: 0.1mM,1.01 ± 0.05
same,NP40-soluble protein abundance,concentration: 0.5mM,1.02 ± 0.063
UniProt Q9UDY8 and related entries,NP40-soluble protein abundance,concentration: 0.1mM,1.06 ± 0.014
same,NP40-soluble protein abundance,concentration: 0.5mM,1.04 ± 0.07
UniProt Q9UHC7 and related entries,NP40-soluble protein abundance,concentration: 0.1mM,0.925 ± 0.06
same,NP40-soluble protein abundance,concentration: 0.5mM,0.985 ± 0.08
UniProt Q9UII2,NP40-soluble protein abundance,concentration: 0.1mM,0.941 ± 0.12
same,NP40-soluble protein abundance,concentration: 0.5mM,1.02 ± 0.26
ZMAT5 (UniProt Q9UDW3),NP40-soluble protein abundance,concentration: 0.1mM,0.984 ± 0.16
same,NP40-soluble protein abundance,concentration: 0.5mM,1.07 ± 0.12
GPATCH8 (UniProt Q9UKJ3),NP40-soluble protein abundance,concentration: 0.1mM,1.07 ± 0.027
same,NP40-soluble protein abundance,concentration: 0.5mM,1.35 ± 0.15
PNMA2 (UniProt Q9UL42),NP40-soluble protein abundance,concentration: 0.1mM,0.969 ± 0.025
same,NP40-soluble protein abundance,concentration: 0.5mM,0.947 ± 0.06
ARMCX3 (UniProt Q9UH62),NP40-soluble protein abundance,concentration: 0.1mM,0.927 ± 0.033
same,NP40-soluble protein abundance,concentration: 0.5mM,0.893 ± 0.042
UniProt Q9Y221 and related entries,NP40-soluble protein abundance,concentration: 0.1mM,1.06 ± 0.037
same,NP40-soluble protein abundance,concentration: 0.5mM,1.18 ± 0.11
UniProt Q9UGR2 and related entries,NP40-soluble protein abundance,concentration: 0.1mM,1.03 ± 0.038
same,NP40-soluble protein abundance,concentration: 0.5mM,1 ± 0.034
VPS4A (UniProt Q9UN37),NP40-soluble protein abundance,concentration: 0.1mM,1.11 ± 0.067
same,NP40-soluble protein abundance,concentration: 0.5mM,1.25 ± 0.14
UniProt Q9UKA9 and related entries,NP40-soluble protein abundance,concentration: 0.1mM,1.01 ± 0.058
same,NP40-soluble protein abundance,concentration: 0.5mM,1 ± 0.03
UniProt Q9UBI1 and related entries,NP40-soluble protein abundance,concentration: 0.1mM,1.04 ± 0.038
same,NP40-soluble protein abundance,concentration: 0.5mM,0.997 ± 0.052
UniProt Q9ULL5-3,NP40-soluble protein abundance,concentration: 0.1mM,0.953 ± 0.059
same,NP40-soluble protein abundance,concentration: 0.5mM,0.946 ± 0.074
UniProt Q9ULI0 and related entries,NP40-soluble protein abundance,concentration: 0.1mM,1.14 ± 0.1
same,NP40-soluble protein abundance,concentration: 0.5mM,1.52 ± 0.32
same,NP40-soluble protein abundance,concentration: 1mM,1.69 ± 0.34
same,NP40-soluble protein abundance,concentration: 2mM,1.83 ± 0.46
same,NP40-soluble protein abundance,concentration: 4mM,1.86 ± 0.57
same,NP40-soluble protein abundance,concentration: 6mM,1.86 ± 0.44
same,NP40-soluble protein abundance,concentration: 8mM,1.75 ± 0.44
same,NP40-soluble protein abundance,concentration: 10mM,1.72 ± 0.48
CFDP1 (UniProt Q9UEE9),NP40-soluble protein abundance,concentration: 0.1mM,0.955 ± 0.021
same,NP40-soluble protein abundance,concentration: 0.5mM,0.932 ± 0.022
UniProt Q9ULH0 and related entries,NP40-soluble protein abundance,concentration: 0.1mM,1.04 ± 0.038
same,NP40-soluble protein abundance,concentration: 0.5mM,0.999 ± 0.025
WARS2 (UniProt Q9UGM6),NP40-soluble protein abundance,concentration: 0.1mM,1.01 ± 0.088
same,NP40-soluble protein abundance,concentration: 0.5mM,1 ± 0.082
UniProt Q9ULE6,NP40-soluble protein abundance,concentration: 0.1mM,1.09 ± 0.067
same,NP40-soluble protein abundance,concentration: 0.5mM,1.11 ± 0.05
same,NP40-soluble protein abundance,concentration: 1mM,1.08 ± 0.084
same,NP40-soluble protein abundance,concentration: 2mM,1.03 ± 0.12
same,NP40-soluble protein abundance,concentration: 4mM,1.06 ± 0.092
same,NP40-soluble protein abundance,concentration: 6mM,0.991 ± 0.1
same,NP40-soluble protein abundance,concentration: 8mM,1.05 ± 0.045
same,NP40-soluble protein abundance,concentration: 10mM,1.02 ± 0.048
UniProt Q9UL54-2,NP40-soluble protein abundance,concentration: 0.1mM,1.22 ± 0.092
same,NP40-soluble protein abundance,concentration: 0.5mM,1.28 ± 0.058
same,NP40-soluble protein abundance,concentration: 1mM,1.29 ± 0.17
same,NP40-soluble protein abundance,concentration: 2mM,1.54 ± 0.35
same,NP40-soluble protein abundance,concentration: 4mM,1.57 ± 0.33
same,NP40-soluble protein abundance,concentration: 6mM,1.67 ± 0.33
same,NP40-soluble protein abundance,concentration: 8mM,1.63 ± 0.24
same,NP40-soluble protein abundance,concentration: 10mM,1.69 ± 0.4
EIF2AK4 (UniProt Q9P2K8),NP40-soluble protein abundance,concentration: 0.1mM,1.04 ± 0.062
same,NP40-soluble protein abundance,concentration: 0.5mM,1.04 ± 0.058
same,NP40-soluble protein abundance,concentration: 1mM,1.04 ± 0.096
same,NP40-soluble protein abundance,concentration: 2mM,1.02 ± 0.078
same,NP40-soluble protein abundance,concentration: 4mM,1.02 ± 0.071
same,NP40-soluble protein abundance,concentration: 6mM,0.967 ± 0.073
same,NP40-soluble protein abundance,concentration: 8mM,1.03 ± 0.056
same,NP40-soluble protein abundance,concentration: 10mM,1.03 ± 0.082

# Some of the entries so far, bar-delimited:
target | measurement | setting | value
UniProt Q9UGU0 and related entries | NP40-soluble protein abundance | concentration: 0.5mM | 1.05 ± 0.064
UniProt Q9UNM6 and related entries | NP40-soluble protein abundance | concentration: 0.1mM | 0.979 ± 0.038
same | NP40-soluble protein abundance | concentration: 0.5mM | 0.957 ± 0.024
